One assay deals with T1, HES5wt-FLAG (human) (UniProt Q5TA89).
T1 sequence: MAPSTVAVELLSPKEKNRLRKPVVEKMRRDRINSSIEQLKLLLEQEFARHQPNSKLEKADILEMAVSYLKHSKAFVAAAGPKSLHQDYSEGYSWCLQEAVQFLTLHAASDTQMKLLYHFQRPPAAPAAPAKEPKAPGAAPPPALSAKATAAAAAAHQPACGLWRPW
The assay can be described thus: co-IP; HEK293T cells transiently co-transfected with HES5wt-FLAG or HES5mut-FLAG together with AKT; anti-FLAG immunoprecipitation; western blot with anti-pAKT(Ser473), anti-AKT or anti-HES5. In general terms: Immunoblotting shows a protein as a band on a membrane.

For assay [1], the target named is T2, HES5wt (Dox-inducible in Hep3B cells) (human) (UniProt Q5TA89).
T2 sequence: T1 sequence
Nature of the assay: proximity ligation; PLA in Hep3B cells expressing HES5wt or HES5mut with or without induction by 2 µg/ml Dox; confocal imaging; PLA dots per cell counted.

No constants are given. Whether binding was seen depends on the method and setting. Binding seen in cells or lysates may run through a third protein. Binding can be weak; no strength is given. For some assays here: Tags and fused reporters may be left off the sequences shown.

With AKT (enzyme), in the assay with HES5wt-FLAG (human), the binding result is listed as “binds”. AKT (in Hep3B cells) (enzyme): in assay [1], the binding result is reported as “binds”.

These data come from paper PMC7142020.
